PubChem BioAssay AID1053208 | Peter MacCallum Cancer Centre – 2014
The deposit covers about 17,000 reagents; this is a part drawn at random. 788 of them (4.7%) were called active. 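Calls rest on z-score classes alone; an extra cut-off of viability at most 70% of control was not applied to them.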 Reagents against one gene are numbered here. Further read-outs or replicates are left out here.

Assay: 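Find knock-downs that sensitise mouse osteosarcoma cells to doxorubicin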 (primary screen)
System: mouse osteosarcoma cells, early-passage culture from an engineered mouse model of fibroblastic bone tumour
Reagents: siRNA pool against mouse genes, 40 nM
Duration: about 120 h (48 h before drug, then 72 h with drug)
Challenge: doxorubicin 100 nM for 72 h, roughly 30-40% inhibitory dose
Detection: 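Viability read as ATP luminescence after 72 h of 100 nM doxorubicin or none, duplicate wells averaged, scaled to non-targeting siRNA, then expressed as robust z-scores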
Scale: viability z-score with doxorubicin: higher = more viable cells under doxorubicin; viability z-score without drug: higher = more viable cells with knock-down alone
Call rule: 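Called active if knock-down leaves viability unchanged without drug (z within -2 to 2) but lowers it with doxorubicin (z at or under -2)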

gene symbol | reagent | combined z-score class | viability z-score with doxorubicin | viability z-score without drug | Outcome
Snhg11 (small nucleolar RNA host gene 11) | 1 | no change with or without drug | 0.34 | -0.67 | inactive
Smim7 (small integral membrane protein 7) | 1 | no change with or without drug | -0.11 | -0.17 | inactive
Or10d1c (olfactory receptor family 10 subfamily D member 1C) | 1 | no change with or without drug | 0.56 | -0.84 | inactive
Ubl5 (ubiquitin-like 5) | 1 | low cell count with doxorubicin only | -2.02 | -1.35 | active
Eif4h (eukaryotic translation initiation factor 4H) | 1 | no change with or without drug | 0 | 0.17 | inactive
Tmem132a (transmembrane protein 132A) | 1 | no change with or without drug | -1.35 | -1.69 | inactive
Nmnat3 (nicotinamide nucleotide adenylyltransferase 3) | 1 | high cell count without drug only | 1.57 | 3.37 | inactive
Selenoo (selenoprotein O) | 1 | no change with or without drug | 0.56 | 0.17 | inactive
C4bp (complement component 4 binding protein) | 1 | no change with or without drug | -0.45 | 0.17 | inactive
Serpina12 | 1 | no change with or without drug | 0.79 | -0.17 | inactive
Dnase2b (deoxyribonuclease II beta) | 1 | no change with or without drug | -0.22 | 0.51 | inactive
Hic2 (hypermethylated in cancer 2) | 1 | no change with or without drug | 0.22 | 0.51 | inactive
Tssk1 (testis-specific serine kinase 1) | 1 | low cell count with doxorubicin only | -2.92 | -1.52 | active
Wwox (WW domain-containing oxidoreductase) | 1 | no change with or without drug | -0.34 | 1.01 | inactive
Pms1 (PMS1 homolog 1, mismatch repair system component) | 1 | no change with or without drug | 1.24 | 1.18 | inactive
Sys1 | 1 | no change with or without drug | 0.9 | 0.51 | inactive
Lama2 (laminin, alpha 2) | 1 | high cell count without drug only | 0.56 | 2.7 | inactive

Reagents above with an active call:
gene symbol | reagent | combined z-score class | viability z-score with doxorubicin | viability z-score without drug | Outcome
Ubl5 (ubiquitin-like 5) | 1 | low cell count with doxorubicin only | -2.02 | -1.35 | active
Tssk1 (testis-specific serine kinase 1) | 1 | low cell count with doxorubicin only | -2.92 | -1.52 | active

More reagents:
gene symbol | reagent | combined z-score class | viability z-score with doxorubicin | viability z-score without drug | Outcome
Rdh5 (retinol dehydrogenase 5) | 1 | no change with or without drug | -0.9 | -0.84 | inactive
Rassf7 | 1 | no change with or without drug | 1.01 | 0.51 | inactive
Tnfrsf25 (tumor necrosis factor receptor superfamily, member 25) | 1 | no change with or without drug | -1.12 | -1.18 | inactive
Or2b4 (olfactory receptor family 2 subfamily B member 4) | 1 | no change with or without drug | -1.8 | -1.35 | inactive
Rhobtb1 (Rho-related BTB domain containing 1) | 1 | no change with or without drug | -1.35 | 1.01 | inactive
Vmn1r81 (vomeronasal 1 receptor 81) | 1 | high cell count with and without drug | 3.04 | 2.53 | inactive
Epb41l3 (erythrocyte membrane protein band 4.1 like 3) | 1 | no change with or without drug | -0.22 | -0.51 | inactive
Mrps12 (mitochondrial ribosomal protein S12) | 1 | low cell count with and without drug | -2.25 | -2.53 | inactive
Aptx (aprataxin) | 1 | no change with or without drug | 1.12 | -0.84 | inactive
Foxk2 (forkhead box K2) | 1 | no change with or without drug | -0.45 | 0 | inactive
Ppard (peroxisome proliferator activator receptor delta) | 1 | no change with or without drug | 0.45 | -0.34 | inactive
Capn5 (calpain 5) | 1 | no change with or without drug | -0.22 | 0.67 | inactive
Chrna7 (cholinergic receptor, nicotinic, alpha polypeptide 7) | 1 | no change with or without drug | -1.57 | -1.01 | inactive
Abraxas1 (BRCA1 A complex subunit) | 1 | no change with or without drug | 1.35 | 0.51 | inactive
Abraxas1 (BRCA1 A complex subunit) | 2 | low cell count with doxorubicin only | -2.02 | -0.84 | active
Tet2 (tet methylcytosine dioxygenase 2) | 1 | no change with or without drug | 0.11 | 1.18 | inactive
Trerf1 (transcriptional regulating factor 1) | 1 | no change with or without drug | 0.22 | 0.67 | inactive
Slc71a2 | 1 | no change with or without drug | -0.22 | 0 | inactive
Lcor (ligand dependent nuclear receptor corepressor) | 1 | no change with or without drug | 1.35 | 0.17 | inactive
Prl3b1 (prolactin family 3, subfamily b, member 1) | 1 | high cell count without drug only | -0.67 | 2.19 | inactive
Oscar (osteoclast associated receptor) | 1 | no change with or without drug | -1.8 | -1.52 | inactive
Rgl3 (ral guanine nucleotide dissociation stimulator-like 3) | 1 | no change with or without drug | 0.67 | 1.18 | inactive
Krt6b (keratin 6B) | 1 | no change with or without drug | 0 | 0.51 | inactive
App (amyloid beta precursor protein) | 1 | no change with or without drug | -0.22 | -0.51 | inactive
Specc1l | 1 | no change with or without drug | -0.34 | -1.52 | inactive
Tas2r105 (taste receptor, type 2, member 105) | 1 | no change with or without drug | -1.12 | -1.69 | inactive
Rbck1 (RanBP-type and C3HC4-type zinc finger containing 1) | 1 | low cell count with and without drug | -2.02 | -3.2 | inactive
Mrto4 (mRNA turnover 4, ribosome maturation factor) | 1 | no change with or without drug | 0.9 | 0.84 | inactive
Cst9 (cystatin 9) | 1 | no change with or without drug | 0.56 | 0.67 | inactive
Man2c1 (mannosidase, alpha, class 2C, member 1) | 1 | no change with or without drug | 0.45 | -0.17 | inactive
Rac3 (Rac family small GTPase 3) | 1 | no change with or without drug | -0.11 | -0.51 | inactive
Akap4 (A kinase anchor protein 4) | 1 | no change with or without drug | 0.9 | -0.34 | inactive
Fis1 (fission, mitochondrial 1) | 1 | no change with or without drug | -1.8 | -0.17 | inactive
